# Reference: paper doi:10.1101/2025.05.27.656052
# These are yes or no findings as the source states them, for the method shown. In cells and extracts the contact can be indirect. Some results given as binding are weak or reduced against the parent protein; the word gives no strength. For some of these results: Sequences can lack the tags named with a protein.
# T1: GFP-tagged NINJ2 (pEGFP-N1-NINJ2), full-length Ninjurin2 (UniProt Q9NZG7)
# T1 sequence: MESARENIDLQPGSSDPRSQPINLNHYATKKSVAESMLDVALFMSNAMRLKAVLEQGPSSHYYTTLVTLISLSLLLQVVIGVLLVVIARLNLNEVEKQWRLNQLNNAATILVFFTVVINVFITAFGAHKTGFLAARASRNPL
# T2: Flag-Ninjurin2 (UniProt Q9NZG7)
# T2 sequence: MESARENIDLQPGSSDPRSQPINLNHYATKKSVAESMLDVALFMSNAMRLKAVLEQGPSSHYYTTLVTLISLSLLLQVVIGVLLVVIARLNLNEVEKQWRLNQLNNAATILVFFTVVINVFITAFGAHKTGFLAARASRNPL
# How the values were obtained:
# Assay in all cases: co-IP
# GFP-NINJ2-TM2 = GFP-NINJ2-TM2 (UniProt Q9NZG7)
# GFP-NINJ2-aa63-142 = GFP-NINJ2-aa63-142 (UniProt Q9NZG7)
# [1] = target: T1, GFP-tagged NINJ2 (pEGFP-N1-NINJ2), full-length Ninjurin2
# GFP-NINJ2-aa1-62 = GFP-NINJ2-aa1-62 (UniProt Q9NZG7)
# GFP-NINJ2-TM1 = GFP-NINJ2-TM1 (UniProt Q9NZG7)
# Flag-Ninjurin2 = target: T2, Flag-Ninjurin2
# [2] = target: Flag-tagged PDGFR-β (p3×Flag-CMV-10-PDGFRB) (UniProt P09619)
molecule,measurement,setting,value
Flag-tagged PDGFR-β (p3×Flag-CMV-10-PDGFRB) (from UniProt P09619 33-1106) (receptor),binding,GFP-NINJ2-TM2,binds
same,binding,GFP-NINJ2-aa63-142,binds
same,binding,[1],binds
same,binding,GFP-NINJ2-aa1-62,no binding
same,binding,GFP-NINJ2-TM1,binds
GFP-PDGFRB-TyrKc (from UniProt P09619 600-958) (domain or fragment),binding,Flag-Ninjurin2,binds
"GFP-tagged NINJ2 (pEGFP-N1-NINJ2), full-length Ninjurin2 (protein, UniProt Q9NZG7 1-142) MESARENIDLQPGSSDPRSQPINLNHYATKKSVAESMLDVALFMSNAMRLKAVLEQGPSSHYYTTLVTLISLSLLLQVVIGVLLVVIARLNLNEVEKQWRLNQLNNAATILVFFTVVINVFITAFGAHKTGFLAARASRNPL",binding,[2],binds
